Consider one compound from article PMC10693208 (Evolutionary Bioinformatics Online, 2023).

The subject of the assay is H1975 cells. In words: MTT cytotoxicity, H1975. It counts as cell-based. The conditions noted are these: Homo sapiens, NCI-H1975, read-out: H1975 IC50.

One may read the IC50 as the concentration needed to halve the response being measured. On to `CN[C@@H]1C[C@H]2O[C@@](C)([C@@H]1OC)n1c3ccccc3c3c4c(c5c6ccccc6n2c5c31)C(=O)NC4` [Staurosporine, reference compound], for which the IC50 is 4.42 µM.
